Here are results for two molecules from US20210163601A1.

Sequences of proteins named here, by UniProt entry; tags and fusion partners are left off. A change or cut given only in a name is not applied to a line headed by its entry.
UniProt P07307: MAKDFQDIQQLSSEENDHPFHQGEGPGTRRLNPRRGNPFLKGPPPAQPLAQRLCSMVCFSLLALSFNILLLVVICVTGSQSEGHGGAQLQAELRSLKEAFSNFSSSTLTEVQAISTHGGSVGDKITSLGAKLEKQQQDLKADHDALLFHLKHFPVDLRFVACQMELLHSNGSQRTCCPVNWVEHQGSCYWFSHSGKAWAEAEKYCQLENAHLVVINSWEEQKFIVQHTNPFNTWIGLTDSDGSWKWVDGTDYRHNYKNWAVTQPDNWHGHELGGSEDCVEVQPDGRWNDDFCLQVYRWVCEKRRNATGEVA

Results are given in words; binding and its absence hold for the method and conditions named. Some entries that bind do so weakly or less than the wild type.

The assay deals with Human ASGR-2 (human) (UniProt P07307). The assay can be described thus: FACS, transfected HEK 293 cells or membrane-prep beads. (A flow cytometer gives signals particle by particle.)

B1: 6G7 (antibody, V domains shown)
VH: QVQLVESGGGVVQPGRSLRLSCAASGFTFSSYGMHWVRQTPGKGLEWVAIISYVGKNKYYADSVKGRFTISRDNSKNTLYLQMNSLRAEDTAVYYCARRGNSYGGYGMDVWGQGTTVTVSS
VL: DIQMTQSPSSRSASVGDRVTITCQASQDISNYLNWCQQKPGKALKLLIYDASTLETGVPSRFSGSGSGTDFTFTISSVQPEDIATYYCQQYDNVPITFGQGTRLEIK
On to B1, for which the binding result is given as “binds”.

B2: 7F4 (antibody, V domains shown)
VH: QLQLQESGPGLVKPSETLSLTCTVSGGSISRSSYYWGWIRQPPGKGLEWIGNIYYSGATYYNPSLKSRVTISVDTSTNQFSLKLSSVTAADTAVYYCARHSGSWSLDYWGQGTLVTVSS
VL: DIQMTQSPSSLSASVGDRVTITCRTSQGIRNDLGWYQQKPGKAPKRLIYAASNLQSGVPSRFSGSGSGTEFTLTISSLQPEDFATYYCLQHSAYPLTFGGGTKVEIK
Regarding B2, the binding entry is reported as “binds”.
